This note sets out measurements from article PMC3347604.

Results are given in words; binding and its absence hold for the method and conditions named. In cells and extracts the contact can be indirect. Some entries that bind do so weakly or less than the wild type.

One experiment concerns the target T1, Rabin8 (UniProt Q96QF0).
T1 sequence: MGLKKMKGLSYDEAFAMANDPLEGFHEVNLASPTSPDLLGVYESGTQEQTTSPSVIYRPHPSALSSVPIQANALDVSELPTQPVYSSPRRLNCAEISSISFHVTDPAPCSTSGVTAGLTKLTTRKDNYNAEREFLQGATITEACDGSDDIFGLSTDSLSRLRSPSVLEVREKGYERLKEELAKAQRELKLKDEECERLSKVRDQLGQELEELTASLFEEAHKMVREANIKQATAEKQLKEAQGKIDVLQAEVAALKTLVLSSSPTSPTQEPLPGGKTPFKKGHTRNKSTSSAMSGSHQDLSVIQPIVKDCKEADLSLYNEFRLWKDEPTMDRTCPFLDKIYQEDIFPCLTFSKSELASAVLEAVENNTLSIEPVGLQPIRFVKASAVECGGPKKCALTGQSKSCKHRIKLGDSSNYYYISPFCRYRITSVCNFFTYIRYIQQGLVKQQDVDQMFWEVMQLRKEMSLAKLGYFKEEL
Put plainly: co-IP; HEK293 lysates (Rabin8 and Myc-Rheb co-transfected) precipitated with anti-Rabin8 antibody, 12 h at 4 C, protein-A-agarose; immunoblot with anti-Myc; cells in medium with growth factors, without growth factors, or after short-term stimulation.

In experiment [1] the target is Myc-Rheb fusion protein (UniProt Q15382). Description: condition: only cells in medium without growth factors; co-IP; as a2 (anti-Myc precipitation, immunoblot with anti-Rabin8 and anti-mTOR), but cells grown in medium without growth factors.
For experiment [2] the target is unchanged. Put plainly: co-IP; HEK293 lysates (Rabin8 and Myc-Rheb co-transfected) precipitated with anti-Myc antibody, 12 h at 4 C, protein-A-agarose; immunoblot with anti-Rabin8 and anti-mTOR; cells in medium with growth factors or after short-term stimulation. (A western blot detects proteins with antibodies after separation by electrophoresis.)

As to “Myc-Rheb fusion protein (from UniProt Q15382 1-184) (enzyme)”, the binding entry in the experiment with Rabin8 is recorded as “binds”.

B1: Rabin8 (protein, UniProt Q96QF0 1-476)
chain: T1 sequence
For B1, the binding result with Myc-Rheb fusion protein [1] was “no binding”; with Myc-Rheb fusion protein [2], “binds”.
